# Test results as given in the supplement of paper PMC8728848.
# Some of the results follow.
# B1: Agalectin (Anopheles gambiae) (protein)
# chain: MSNRPFTAKFPRYPENGDEVFIRGKLKDDAKSFSVNFCLPRPAQVAEHQTPPYIALHFKTIYDERDDTSRVVLNWKNLQWQQEEVLDNYWHVDRSQTFRVVFRLHEDCIKVFVNSVDHPPDYQFPVQLPLDQIESIELWDDVEHVEEISFRYDNGNSY
# Key:
# Assay in all cases: glycan array binding signal (z-score within array); higher = stronger binding
# Settings in all cases: glycan notation: IUPAC condensed, linker removed
# [1] = target: Neu5Ac(a2-3)Gal(b1-3)GlcNAc6S
# Method in brief: (§1)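 From the Consortium for Functional Glycomics database, 3228 arrays were curated, keeping only those whose protein sequence was available. Binding is given as a within-array Z-score averaged across arrays sharing a protein sequence and across linkers. Negative Z-scores can be read as non-binding.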
# [2] = target: Neu5Ac(a2-3)Gal(b1-3)[Fuc(a1-4)]GlcNAc
# Method in brief: as §1
# [3] = target: Neu5Ac(a2-3)Gal(b1-3)[Fuc(a1-4)]GlcNAc(b1-3)Gal(b1-3)[Fuc(a1-4)]GlcNAc
# Method in brief: as §1
# [4] = target: Neu5Ac(a2-3)Gal(b1-3)[Fuc(a1-4)]GlcNAc(b1-3)Gal(b1-4)[Fuc(a1-3)]GlcNAc
# Method in brief: as §1
# [5] = target: Neu5Ac(a2-3)Gal(b1-3)[GlcNAc(b1-6)]GalNAc
# Method in brief: as §1
# [6] = target: Neu5Ac(a2-3)Gal(b1-3)[Neu5Ac(a2-6)]GalNAc
# Method in brief: as §1
# [7] = target: Neu5Ac(a2-3)Gal(b1-3)[Neu5Ac(a2-6)]GlcNAc(b1-3)[Fuc(a1-3)[Gal(b1-4)]GlcNAc(b1-6)]Gal(b1-4)Glc
# Method in brief: as §1
# [8] = target: Neu5Ac(a2-3)Gal(b1-3)]Neu5Ac(a2-3)Gal(b1-4)]GlcNAc
# Method in brief: as §1
# Neu5Ac(a2-3)Gal(b1-4)Glc = target: Neu5Ac(a2-3)Gal(b1-4)Glc
# Method in brief: as §1
# [9] = target: Neu5Ac(a2-3)Gal(b1-4)GlcNAc
# Method in brief: as §1
# [10] = target: Neu5Ac(a2-3)Gal(b1-4)GlcNAc(b1-2)Man
# Method in brief: as §1
# [11] = target: Neu5Ac(a2-3)Gal(b1-4)GlcNAc(b1-2)Man(a1-3)[GlcNAc(b1-4)][Neu5Ac(a2-3)Gal(b1-4)GlcNAc(b1-2)Man(a1-6)]Man(b1-4)GlcNAc(b1-4)GlcNAc
# Method in brief: as §1
# [12] = target: Neu5Ac(a2-3)Gal(b1-4)GlcNAc(b1-2)Man(a1-3)[Neu5Ac(a2-3)Gal(b1-4)GlcNAc(b1-2)Man(a1-6)]Man(b1-4)GlcNAc(b1-4)GlcNAc
# Method in brief: as §1
# [13] = target: Neu5Ac(a2-3)Gal(b1-4)GlcNAc(b1-2)Man(a1-3)[Neu5Ac(a2-3)Gal(b1-4)GlcNAc(b1-2)Man(a1-6)]Man(b1-4)GlcNAc(b1-4)[Fuc(a1-6)]GlcNAc
# Method in brief: as §1
# [14] = target: Neu5Ac(a2-3)Gal(b1-4)GlcNAc(b1-2)Man(a1-3)[Neu5Ac(a2-6)Gal(b1-4)GlcNAc(b1-2)Man(a1-6)]Man(b1-4)GlcNAc(b1-4)GlcNAc
# Method in brief: as §1
# [15] = target: Neu5Ac(a2-3)Gal(b1-4)GlcNAc(b1-2)[Neu5Ac(a2-3)Gal(b1-4)GlcNAc(b1-4)]Man(a1-3)[GlcNAc(b1-4)][Neu5Ac(a2-3)Gal(b1-4)GlcNAc(b1-2)[Neu5Ac(a2-3)Gal(b1-4)GlcNAc(b1-6)]Man(a1-6)]Man(b1-4)GlcNAc(b1-4)GlcNAc
# Method in brief: as §1
# [16] = target: Neu5Ac(a2-3)Gal(b1-4)GlcNAc(b1-2)[Neu5Ac(a2-3)Gal(b1-4)GlcNAc(b1-4)]Man(a1-3)[GlcNAc(b1-4)][Neu5Ac(a2-3)Gal(b1-4)GlcNAc(b1-4)Man(a1-6)]Man(b1-4)GlcNAc(b1-4)GlcNAc
# Method in brief: as §1
# [17] = target: Neu5Ac(a2-3)Gal(b1-4)GlcNAc(b1-2)[Neu5Ac(a2-3)Gal(b1-4)GlcNAc(b1-6)]Man(a1-6)[Neu5Ac(a2-3)Gal(b1-4)GlcNAc(b1-2)Man(a1-3)][GlcNAc(b1-4)]Man(b1-4)GlcNAc(b1-4)GlcNAc
# Method in brief: as §1
# [18] = target: Neu5Ac(a2-3)Gal(b1-4)GlcNAc(b1-3)Gal
# Method in brief: as §1
# [19] = target: Neu5Ac(a2-3)Gal(b1-4)GlcNAc(b1-3)Gal(b1-3)GlcNAc
# Method in brief: as §1
# [20] = target: Neu5Ac(a2-3)Gal(b1-4)GlcNAc(b1-3)Gal(b1-4)GlcNAc
# Method in brief: as §1
# [21] = target: Neu5Ac(a2-3)Gal(b1-4)GlcNAc(b1-3)Gal(b1-4)GlcNAc(b1-2)Man(a1-3)[Neu5Ac(a2-3)Gal(b1-4)GlcNAc(b1-3)Gal(b1-4)GlcNAc(b1-2)Man(a1-6)]Man(b1-4)GlcNAc(b1-4)GlcNAc
# Method in brief: as §1
# [22] = target: Neu5Ac(a2-3)Gal(b1-4)GlcNAc(b1-3)Gal(b1-4)GlcNAc(b1-3)Gal(b1-4)GlcNAc
# Method in brief: as §1
# [23] = target: Neu5Ac(a2-3)Gal(b1-4)GlcNAc(b1-3)Gal(b1-4)GlcNAc(b1-3)Gal(b1-4)GlcNAc(b1-2)Man(a1-3)[Neu5Ac(a2-3)Gal(b1-4)GlcNAc(b1-3)Gal(b1-4)GlcNAc(b1-3)Gal(b1-4)GlcNAc(b1-2)Man(a1-6)]GalNAc
# Method in brief: as §1
# [24] = target: Neu5Ac(a2-3)Gal(b1-4)GlcNAc(b1-3)Gal(b1-4)GlcNAc(b1-3)GalNAc
# Method in brief: as §1
# [25] = target: Neu5Ac(a2-3)Gal(b1-4)GlcNAc(b1-3)Gal(b1-4)GlcNAc(b1-3)[Neu5Ac(a2-3)Gal(b1-4)GlcNAc(b1-3)Gal(b1-4)GlcNAc(b1-6)]GalNAc
# Method in brief: as §1
# [26] = target: Neu5Ac(a2-3)Gal(b1-4)GlcNAc(b1-3)Gal(b1-4)GlcNAc(b1-6)[Gal(b1-3)]GalNAc
# Method in brief: as §1
# [27] = target: Neu5Ac(a2-3)Gal(b1-4)GlcNAc(b1-3)Gal(b1-4)[Fuc(a1-3)]GlcNAc
# Method in brief: as §1
# [28] = target: Neu5Ac(a2-3)Gal(b1-4)GlcNAc(b1-3)GalNAc
# Method in brief: as §1
# [29] = target: Neu5Ac(a2-3)Gal(b1-4)GlcNAc(b1-3)[Neu5Ac(a2-3)Gal(b1-4)GlcNAc(b1-6)]GalNAc
# Method in brief: as §1
# [30] = target: Neu5Ac(a2-3)Gal(b1-4)GlcNAc(b1-6)GalNAc
# Method in brief: as §1
# [31] = target: Neu5Ac(a2-3)Gal(b1-4)GlcNAc(b1-6)[Gal(b1-3)]GalNAc
# Method in brief: as §1
# [32] = target: Neu5Ac(a2-3)Gal(b1-4)GlcNAc(b1-6)[Neu5Ac(a2-3)Gal(b1-3)]GalNAc
# Method in brief: as §1
# [33] = target: Neu5Ac(a2-3)Gal(b1-4)GlcNAc6S
# Method in brief: as §1
# [34] = target: Neu5Ac(a2-3)Gal(b1-4)[Fuc(a1-3)]GlcNAc
# Method in brief: as §1
# [35] = target: Neu5Ac(a2-3)Gal(b1-4)[Fuc(a1-3)]GlcNAc(b1-2)Man
# Method in brief: as §1
# [36] = target: Neu5Ac(a2-3)Gal(b1-4)[Fuc(a1-3)]GlcNAc(b1-3)Gal
# Method in brief: as §1
# [37] = target: Neu5Ac(a2-3)Gal(b1-4)[Fuc(a1-3)]GlcNAc(b1-3)Gal(b1-4)GlcNAc
# Method in brief: as §1
# [38] = target: Neu5Ac(a2-3)Gal(b1-4)[Fuc(a1-3)]GlcNAc(b1-3)Gal(b1-4)[Fuc(a1-3)]GlcNAc(b1-3)Gal(b1-4)[Fuc(a1-3)]GlcNAc
# Method in brief: as §1
# [39] = target: Neu5Ac(a2-3)Gal(b1-4)[Fuc(a1-3)]GlcNAc(b1-3)GalNAc
# Method in brief: as §1
# [40] = target: Neu5Ac(a2-3)Gal(b1-4)[Fuc(a1-3)]GlcNAc(b1-6)[Gal(b1-3)]GalNAc
# Method in brief: as §1
# [41] = target: Neu5Ac(a2-3)Gal(b1-4)[Fuc(a1-3)]GlcNAc(b1-6)[Neu5Ac(a2-3)Gal(b1-3)]GalNAc
# Method in brief: as §1
# [42] = target: Neu5Ac(a2-3)Gal(b1-4)[Fuc(a1-3)]GlcNAc6S
# Method in brief: as §1
# [43] = target: Neu5Ac(a2-3)Gal6S(b1-4)GlcNAc
# Method in brief: as §1
# [44] = target: Neu5Ac(a2-3)Gal6S(b1-4)[Fuc(a1-3)]GlcNAc
# Method in brief: as §1
binder,measurement,setting,value
B1,glycan array binding signal (z-score),[1],0.548
same,glycan array binding signal (z-score),[2],0.004
same,glycan array binding signal (z-score),[3],-0.399
same,glycan array binding signal (z-score),[4],0.198
same,glycan array binding signal (z-score),[5],0.456
same,glycan array binding signal (z-score),[6],0.12
same,glycan array binding signal (z-score),[7],1.48
same,glycan array binding signal (z-score),[8],-0.912
same,glycan array binding signal (z-score),Neu5Ac(a2-3)Gal(b1-4)Glc,0.149
same,glycan array binding signal (z-score),[9],0.023
same,glycan array binding signal (z-score),[10],-0.7
same,glycan array binding signal (z-score),[11],-0.172
same,glycan array binding signal (z-score),[12],-0.639
same,glycan array binding signal (z-score),[13],-0.933
same,glycan array binding signal (z-score),[14],-0.631
same,glycan array binding signal (z-score),[15],-0.065
same,glycan array binding signal (z-score),[16],0.93
same,glycan array binding signal (z-score),[17],0.436
same,glycan array binding signal (z-score),[18],-0.558
same,glycan array binding signal (z-score),[19],0.234
same,glycan array binding signal (z-score),[20],-0.337
same,glycan array binding signal (z-score),[21],-0.317
same,glycan array binding signal (z-score),[22],1.16
same,glycan array binding signal (z-score),[23],2.18
same,glycan array binding signal (z-score),[24],-0.041
same,glycan array binding signal (z-score),[25],0.683
same,glycan array binding signal (z-score),[26],2.16
same,glycan array binding signal (z-score),[27],0.62
same,glycan array binding signal (z-score),[28],-0.499
same,glycan array binding signal (z-score),[29],0.081
same,glycan array binding signal (z-score),[30],-0.257
same,glycan array binding signal (z-score),[31],-1.85
same,glycan array binding signal (z-score),[32],-1.23
same,glycan array binding signal (z-score),[33],1.06
same,glycan array binding signal (z-score),[34],-0.881
same,glycan array binding signal (z-score),[35],0.193
same,glycan array binding signal (z-score),[36],-0.415
same,glycan array binding signal (z-score),[37],-0.224
same,glycan array binding signal (z-score),[38],-0.913
same,glycan array binding signal (z-score),[39],1.97
same,glycan array binding signal (z-score),[40],0.357
same,glycan array binding signal (z-score),[41],3.95
same,glycan array binding signal (z-score),[42],3.86
same,glycan array binding signal (z-score),[43],-0.512
same,glycan array binding signal (z-score),[44],1.06

# Random excerpt: two entries already listed, in no set order.
binder,measurement,setting,value
B1,glycan array binding signal (z-score),[34],-0.881
same,glycan array binding signal (z-score),[12],-0.639
